# Laboratory results: the supplement of paper PMC11732987, “Enantioselective OTUD7B fragment discovery through chemoproteomics screening and high-throughput optimisation” (Communications Chemistry, 2025)
# Amino acid sequences for entries named in this document (tags omitted). A change or cut given only in a name is not applied to a line headed by its entry. Residues count along the entry.
# UniProt O15243: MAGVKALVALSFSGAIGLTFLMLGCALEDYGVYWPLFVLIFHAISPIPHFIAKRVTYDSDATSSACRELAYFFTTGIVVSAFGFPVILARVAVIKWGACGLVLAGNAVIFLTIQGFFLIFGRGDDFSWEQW
# UniProt Q71RC2, 593-615: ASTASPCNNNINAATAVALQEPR
# UniProt Q14657: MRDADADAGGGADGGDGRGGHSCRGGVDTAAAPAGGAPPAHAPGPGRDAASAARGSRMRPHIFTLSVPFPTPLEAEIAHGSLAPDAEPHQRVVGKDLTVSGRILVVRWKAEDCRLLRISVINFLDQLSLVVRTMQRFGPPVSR
# UniProt Q03164, 2071-2093: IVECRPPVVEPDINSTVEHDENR
# UniProt Q6PID8: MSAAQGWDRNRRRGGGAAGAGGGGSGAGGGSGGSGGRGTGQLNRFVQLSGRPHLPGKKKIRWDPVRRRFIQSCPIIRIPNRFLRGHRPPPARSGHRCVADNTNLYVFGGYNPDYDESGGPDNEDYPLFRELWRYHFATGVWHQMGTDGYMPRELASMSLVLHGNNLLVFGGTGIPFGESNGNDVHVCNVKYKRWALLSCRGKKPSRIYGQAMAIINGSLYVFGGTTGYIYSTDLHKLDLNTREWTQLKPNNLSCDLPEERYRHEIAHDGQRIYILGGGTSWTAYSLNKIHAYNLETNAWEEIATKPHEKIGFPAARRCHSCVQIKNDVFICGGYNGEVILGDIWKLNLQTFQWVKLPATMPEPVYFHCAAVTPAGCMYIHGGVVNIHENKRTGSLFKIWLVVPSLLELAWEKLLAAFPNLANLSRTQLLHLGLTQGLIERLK
# UniProt Q7L5N7, 206-226: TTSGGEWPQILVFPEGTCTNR
# UniProt Q969R5, whole entry, looked up: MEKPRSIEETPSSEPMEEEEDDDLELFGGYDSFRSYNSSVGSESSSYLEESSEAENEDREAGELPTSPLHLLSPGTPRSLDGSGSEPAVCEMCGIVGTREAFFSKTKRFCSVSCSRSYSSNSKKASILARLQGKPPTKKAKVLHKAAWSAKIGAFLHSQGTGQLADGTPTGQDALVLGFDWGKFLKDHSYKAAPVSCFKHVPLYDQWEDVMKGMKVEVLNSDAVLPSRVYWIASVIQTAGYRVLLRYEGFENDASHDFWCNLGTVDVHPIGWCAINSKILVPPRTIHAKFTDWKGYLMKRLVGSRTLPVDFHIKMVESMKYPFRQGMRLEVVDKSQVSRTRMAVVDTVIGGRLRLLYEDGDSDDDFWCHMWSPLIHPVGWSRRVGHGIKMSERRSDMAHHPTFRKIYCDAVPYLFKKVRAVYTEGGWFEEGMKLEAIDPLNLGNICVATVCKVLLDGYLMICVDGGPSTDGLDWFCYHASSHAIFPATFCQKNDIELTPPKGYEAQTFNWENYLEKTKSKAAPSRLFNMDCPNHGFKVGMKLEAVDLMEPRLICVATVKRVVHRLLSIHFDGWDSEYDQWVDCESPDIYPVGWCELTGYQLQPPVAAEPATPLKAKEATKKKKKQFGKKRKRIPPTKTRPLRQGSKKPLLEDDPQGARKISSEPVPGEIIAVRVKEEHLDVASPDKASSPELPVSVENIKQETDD
# UniProt Q9P244, 642-664: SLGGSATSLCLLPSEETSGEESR
# UniProt Q8NG31: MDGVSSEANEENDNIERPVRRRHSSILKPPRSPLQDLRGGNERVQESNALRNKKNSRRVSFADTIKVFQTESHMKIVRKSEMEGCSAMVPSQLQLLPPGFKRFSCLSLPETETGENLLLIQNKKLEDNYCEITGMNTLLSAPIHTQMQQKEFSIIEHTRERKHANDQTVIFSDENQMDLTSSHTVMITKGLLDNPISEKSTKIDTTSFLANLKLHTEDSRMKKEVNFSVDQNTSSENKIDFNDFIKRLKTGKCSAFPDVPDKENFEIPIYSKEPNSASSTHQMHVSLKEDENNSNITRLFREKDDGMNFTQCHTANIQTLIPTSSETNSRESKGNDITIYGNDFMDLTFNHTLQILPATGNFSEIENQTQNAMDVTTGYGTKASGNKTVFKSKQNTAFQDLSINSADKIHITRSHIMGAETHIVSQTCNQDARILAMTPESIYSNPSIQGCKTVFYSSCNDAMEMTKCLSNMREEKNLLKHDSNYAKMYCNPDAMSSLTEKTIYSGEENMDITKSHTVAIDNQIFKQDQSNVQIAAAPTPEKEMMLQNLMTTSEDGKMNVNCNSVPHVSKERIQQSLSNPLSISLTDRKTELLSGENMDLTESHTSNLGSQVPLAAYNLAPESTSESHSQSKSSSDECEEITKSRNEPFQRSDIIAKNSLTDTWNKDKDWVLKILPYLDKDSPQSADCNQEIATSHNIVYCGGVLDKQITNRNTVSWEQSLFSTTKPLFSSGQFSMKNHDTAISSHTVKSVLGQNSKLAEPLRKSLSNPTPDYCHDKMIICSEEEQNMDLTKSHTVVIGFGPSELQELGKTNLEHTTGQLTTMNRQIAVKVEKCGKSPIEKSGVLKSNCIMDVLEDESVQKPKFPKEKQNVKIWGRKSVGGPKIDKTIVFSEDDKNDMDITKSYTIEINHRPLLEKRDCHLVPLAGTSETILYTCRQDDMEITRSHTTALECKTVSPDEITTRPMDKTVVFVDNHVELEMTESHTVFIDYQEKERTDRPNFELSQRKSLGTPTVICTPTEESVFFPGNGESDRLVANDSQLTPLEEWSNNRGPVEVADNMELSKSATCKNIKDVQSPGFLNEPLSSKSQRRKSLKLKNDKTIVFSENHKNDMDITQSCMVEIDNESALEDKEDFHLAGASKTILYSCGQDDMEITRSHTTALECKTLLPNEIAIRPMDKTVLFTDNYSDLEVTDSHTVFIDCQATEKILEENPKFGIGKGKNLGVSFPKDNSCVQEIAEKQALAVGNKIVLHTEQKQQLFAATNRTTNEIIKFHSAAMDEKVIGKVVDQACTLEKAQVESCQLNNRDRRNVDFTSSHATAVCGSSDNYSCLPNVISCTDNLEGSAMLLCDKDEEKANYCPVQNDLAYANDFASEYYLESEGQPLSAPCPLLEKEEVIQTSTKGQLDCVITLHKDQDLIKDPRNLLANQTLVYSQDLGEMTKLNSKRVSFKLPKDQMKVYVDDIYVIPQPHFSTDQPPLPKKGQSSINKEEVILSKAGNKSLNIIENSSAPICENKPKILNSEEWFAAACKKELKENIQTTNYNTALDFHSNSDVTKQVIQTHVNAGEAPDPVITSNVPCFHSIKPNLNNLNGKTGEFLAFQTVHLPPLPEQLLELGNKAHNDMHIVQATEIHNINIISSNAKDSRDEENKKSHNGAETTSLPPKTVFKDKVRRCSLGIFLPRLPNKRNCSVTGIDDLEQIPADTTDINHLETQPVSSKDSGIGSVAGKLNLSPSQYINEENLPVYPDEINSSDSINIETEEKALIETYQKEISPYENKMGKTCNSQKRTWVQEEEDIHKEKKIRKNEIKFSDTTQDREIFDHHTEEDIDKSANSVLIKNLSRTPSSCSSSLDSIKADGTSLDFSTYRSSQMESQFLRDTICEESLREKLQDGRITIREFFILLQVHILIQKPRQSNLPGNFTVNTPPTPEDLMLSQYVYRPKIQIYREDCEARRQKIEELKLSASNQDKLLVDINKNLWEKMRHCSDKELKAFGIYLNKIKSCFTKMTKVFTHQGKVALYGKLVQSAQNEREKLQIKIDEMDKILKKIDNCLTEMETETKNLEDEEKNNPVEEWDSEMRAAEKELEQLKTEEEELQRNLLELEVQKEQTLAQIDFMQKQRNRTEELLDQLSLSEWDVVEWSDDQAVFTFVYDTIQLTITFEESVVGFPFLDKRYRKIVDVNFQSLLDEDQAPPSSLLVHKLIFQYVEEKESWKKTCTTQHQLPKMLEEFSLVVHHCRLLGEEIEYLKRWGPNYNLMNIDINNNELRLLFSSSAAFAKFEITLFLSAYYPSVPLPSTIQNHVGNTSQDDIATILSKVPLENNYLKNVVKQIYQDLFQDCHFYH
# UniProt P48059: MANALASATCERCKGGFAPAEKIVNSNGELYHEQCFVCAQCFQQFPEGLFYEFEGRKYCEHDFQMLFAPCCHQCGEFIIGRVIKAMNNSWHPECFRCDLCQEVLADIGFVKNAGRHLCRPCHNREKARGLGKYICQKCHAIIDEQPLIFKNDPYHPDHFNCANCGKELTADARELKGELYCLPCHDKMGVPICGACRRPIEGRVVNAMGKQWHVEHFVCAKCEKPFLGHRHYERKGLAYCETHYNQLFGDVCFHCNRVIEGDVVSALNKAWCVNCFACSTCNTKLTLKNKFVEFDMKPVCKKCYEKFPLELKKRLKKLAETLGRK
# UniProt Q9C0E8, 148-167: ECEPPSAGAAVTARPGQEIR
# UniProt Q9Y4W2: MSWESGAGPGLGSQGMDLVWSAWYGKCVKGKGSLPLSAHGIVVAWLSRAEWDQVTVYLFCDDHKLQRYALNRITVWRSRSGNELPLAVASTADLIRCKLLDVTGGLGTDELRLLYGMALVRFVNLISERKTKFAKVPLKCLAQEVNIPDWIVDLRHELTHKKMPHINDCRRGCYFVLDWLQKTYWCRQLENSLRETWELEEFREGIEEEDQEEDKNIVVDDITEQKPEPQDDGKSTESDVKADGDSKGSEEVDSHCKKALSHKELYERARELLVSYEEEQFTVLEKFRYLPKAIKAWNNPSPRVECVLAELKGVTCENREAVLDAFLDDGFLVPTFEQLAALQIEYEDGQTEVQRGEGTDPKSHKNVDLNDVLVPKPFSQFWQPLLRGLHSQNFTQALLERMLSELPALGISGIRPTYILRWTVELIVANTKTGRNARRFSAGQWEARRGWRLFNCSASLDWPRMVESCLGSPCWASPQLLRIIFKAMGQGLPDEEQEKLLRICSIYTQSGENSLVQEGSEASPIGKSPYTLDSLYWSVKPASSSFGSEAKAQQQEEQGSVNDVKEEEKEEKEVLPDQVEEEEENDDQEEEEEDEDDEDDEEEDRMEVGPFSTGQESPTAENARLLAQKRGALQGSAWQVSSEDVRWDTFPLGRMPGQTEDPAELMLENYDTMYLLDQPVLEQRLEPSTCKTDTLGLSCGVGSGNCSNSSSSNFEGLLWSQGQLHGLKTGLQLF
# UniProt Q8TBB5, 413-432: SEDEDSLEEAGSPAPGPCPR
# UniProt P13796: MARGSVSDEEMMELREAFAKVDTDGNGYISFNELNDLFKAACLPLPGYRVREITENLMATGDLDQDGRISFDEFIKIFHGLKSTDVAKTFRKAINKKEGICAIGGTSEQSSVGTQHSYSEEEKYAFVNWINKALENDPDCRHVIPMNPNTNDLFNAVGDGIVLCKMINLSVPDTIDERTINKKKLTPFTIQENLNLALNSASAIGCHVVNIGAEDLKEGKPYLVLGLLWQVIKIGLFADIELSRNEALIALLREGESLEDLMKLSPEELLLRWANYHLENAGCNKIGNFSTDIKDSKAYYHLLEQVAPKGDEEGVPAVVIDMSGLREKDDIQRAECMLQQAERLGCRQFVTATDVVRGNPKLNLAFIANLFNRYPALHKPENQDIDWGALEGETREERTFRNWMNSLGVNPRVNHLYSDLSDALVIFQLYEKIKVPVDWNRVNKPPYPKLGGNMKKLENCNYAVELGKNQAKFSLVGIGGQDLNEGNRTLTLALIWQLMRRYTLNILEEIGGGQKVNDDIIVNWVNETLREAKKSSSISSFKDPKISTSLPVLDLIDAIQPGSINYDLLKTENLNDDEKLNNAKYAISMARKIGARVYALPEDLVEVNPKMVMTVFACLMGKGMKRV
# UniProt P49917: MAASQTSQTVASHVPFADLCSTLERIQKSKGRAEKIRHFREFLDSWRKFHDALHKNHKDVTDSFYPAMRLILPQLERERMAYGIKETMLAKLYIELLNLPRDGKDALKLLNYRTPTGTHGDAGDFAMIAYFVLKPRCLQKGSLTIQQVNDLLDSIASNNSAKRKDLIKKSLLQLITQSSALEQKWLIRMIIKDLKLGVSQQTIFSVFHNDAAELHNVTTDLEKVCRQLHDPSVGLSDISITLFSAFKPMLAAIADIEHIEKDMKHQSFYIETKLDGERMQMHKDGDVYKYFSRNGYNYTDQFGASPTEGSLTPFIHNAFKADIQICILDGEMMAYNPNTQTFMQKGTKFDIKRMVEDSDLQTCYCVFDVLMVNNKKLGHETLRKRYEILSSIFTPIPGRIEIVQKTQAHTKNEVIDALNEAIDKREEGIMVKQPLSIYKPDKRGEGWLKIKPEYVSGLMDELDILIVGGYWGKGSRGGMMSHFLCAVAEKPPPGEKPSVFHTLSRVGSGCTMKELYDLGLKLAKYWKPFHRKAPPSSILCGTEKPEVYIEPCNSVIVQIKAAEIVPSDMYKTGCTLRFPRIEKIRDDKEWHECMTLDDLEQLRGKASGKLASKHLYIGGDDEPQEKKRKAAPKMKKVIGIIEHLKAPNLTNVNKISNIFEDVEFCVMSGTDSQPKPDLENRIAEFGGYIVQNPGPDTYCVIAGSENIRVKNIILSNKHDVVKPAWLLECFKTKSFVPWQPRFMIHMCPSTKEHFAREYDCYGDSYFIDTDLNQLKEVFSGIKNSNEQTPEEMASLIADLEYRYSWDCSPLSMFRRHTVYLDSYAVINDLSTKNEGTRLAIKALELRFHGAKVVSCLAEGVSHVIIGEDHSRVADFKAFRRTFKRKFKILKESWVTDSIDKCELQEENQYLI
# The list shows a part of the results. The data scatter; read single values as rough.
# Compound: ClCC(=O)N[C@@H]1CCCc2ccccc12
# Assay: log2 mean competition ratio of IA-DTB cysteine labelling (DMSO/compound) (log2 ratio); higher = stronger cysteine engagement by compound
# Details: 50 µM; treatment time: 4 h; cell line lysate: HEK293T
# Description: (§1)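 IA-DTB competitive cysteine chemoproteomics in HEK293T RIPA lysate. Lysates were treated with compound 29 or 30 at 50 or 200 µM for 4 h, then IA-DTB (500 µM, 1 h), trypsin-digested, NeutrAvidin-enriched and analysed by diaPASEF. Competition ratio = intensity DMSO / intensity compound (n=4 treated, n=64 DMSO); binding: mean log2 CR ≥ 1 and p ≤ 0.05 plus QC filters. Target is the cysteine site.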
row,Target,log2 mean competition ratio
1,KMT2B C2540 (UniProt Q9UMN6),-0.381
2,LEPROT C66 (UniProt O15243),0.13
3,LARP4 C599 (UniProt Q71RC2),0.078
4,KPNB1 C543,-0.115
5,LARS1 C1093,-0.271
6,LLGL1 C855 (UniProt Q15334),0.00863
7,KPNA6 C139 (UniProt O60684),0.127
8,LAGE3 C113 (UniProt Q14657),0.112
9,KMT2A C2074 (UniProt Q03164),-0.135
10,KMT2D C4424 (UniProt O14686),-0.0288
11,LARS1 C546,-0.0757
12,KLHDC10 C73 (UniProt Q6PID8),0.265
13,LPCAT2 C223 (UniProt Q7L5N7),-0.00836
14,LRCH2 C265,-0.0322
15,LIMD1 C472 (UniProt Q9UGP4),-0.105
16,L3MBTL2 C554 (UniProt Q969R5),-0.357
17,LIG3 C336 (UniProt P49916),0.408
18,KLHDC3 C213 (UniProt Q9BQ90),0.257
19,LRFN1 C651 (UniProt Q9P244),-0.313

row,Target,log2 mean competition ratio
1,KNL1 C1847 (UniProt Q8NG31),0.0987
2,KLC3 C230 (UniProt Q6P597),-0.0598
3,LIMS1 C94 (UniProt P48059),0.172
4,KIF7 C647,0.00407
5,LIMK1 C390 (UniProt P53667),0.122
6,LOC100421372 C210,-0.0378
7,LRIG1 C1066,0.0463
8,LNPK C149 (UniProt Q9C0E8),-0.00949
9,KIFC1 C485 (UniProt Q9BW19),-0.243
10,LRP1 C2605 (UniProt Q07954),-0.0767
11,LAS1L C316 (UniProt Q9Y4W2),0.0617
12,KLHDC4 C430 (UniProt Q8TBB5),-0.504
13,KMT2E C839 (UniProt Q8IZD2),0.138
14,LARP1 C238 (UniProt Q6PKG0),-0.265
15,LENG8 C643 (UniProt Q96PV6),-0.00968
16,LCP1 C336 (UniProt P13796),-0.0839
17,KNTC1 C1107 (UniProt P50748),0.216
18,LIG4 C510 (UniProt P49917),-0.149

# Same assay, conditions: 200 µM; treatment time: 4 h; cell line lysate: HEK293T
row,Target,log2 mean competition ratio
1,KMT2B C2540 (UniProt Q9UMN6),-0.174
2,LEPROT C66 (UniProt O15243),0.296
3,LARP4 C599 (UniProt Q71RC2),-0.0461
4,KPNB1 C543,-0.263
5,LARS1 C1093,0.272
6,LLGL1 C855 (UniProt Q15334),0.158
7,KPNA6 C139 (UniProt O60684),0.191
8,LAGE3 C113 (UniProt Q14657),0.457
9,KMT2A C2074 (UniProt Q03164),-0.248
10,KMT2D C4424 (UniProt O14686),-0.339
11,LARS1 C546,0.286
12,KLHDC10 C73 (UniProt Q6PID8),0.231
13,LPCAT2 C223 (UniProt Q7L5N7),-0.301
14,LRCH2 C265,-0.129
15,LIMD1 C472 (UniProt Q9UGP4),-0.285
16,L3MBTL2 C554 (UniProt Q969R5),-0.172
17,LIG3 C336 (UniProt P49916),0.102
18,KLHDC3 C213 (UniProt Q9BQ90),0.204
19,LRFN1 C651 (UniProt Q9P244),-0.221

row,Target,log2 mean competition ratio
1,KNL1 C1847 (UniProt Q8NG31),0.144
2,KLC3 C230 (UniProt Q6P597),-0.0268
3,LIMS1 C94 (UniProt P48059),0.144
4,KIF7 C647,0.147
5,LIMK1 C390 (UniProt P53667),-0.256
6,LOC100421372 C210,0.0455
7,LRIG1 C1066,-0.341
8,LNPK C149 (UniProt Q9C0E8),-0.117
9,KIFC1 C485 (UniProt Q9BW19),-0.096
10,LRP1 C2605 (UniProt Q07954),0.296
11,LAS1L C316 (UniProt Q9Y4W2),0.194
12,KLHDC4 C430 (UniProt Q8TBB5),0.203
13,KMT2E C839 (UniProt Q8IZD2),0.242
14,LARP1 C238 (UniProt Q6PKG0),0.298
15,LENG8 C643 (UniProt Q96PV6),-0.103
16,LCP1 C336 (UniProt P13796),0.1
17,KNTC1 C1107 (UniProt P50748),-0.0408
18,LIG4 C510 (UniProt P49917),0.000745

# Compound: ClCC(=O)N[C@H]1CCCc2ccccc12
# Assay: as above
# Details: 50 µM; treatment time: 4 h; cell line lysate: HEK293T
# Description: as §1
row,Target,log2 mean competition ratio
1,LARS1 C1093,-0.21
2,KPNA6 C139 (UniProt O60684),0.247
3,LAGE3 C113 (UniProt Q14657),-0.0364
4,KMT2A C2074 (UniProt Q03164),-0.312
5,KNL1 C1847 (UniProt Q8NG31),-0.658
6,KIF7 C647,0.0579
7,LOC100421372 C210,0.0294
8,KLHDC4 C430 (UniProt Q8TBB5),-0.0766
9,LARP1 C238 (UniProt Q6PKG0),-0.0971
10,LCP1 C336 (UniProt P13796),-0.0382
11,LIG4 C510 (UniProt P49917),-0.16

# Same assay, conditions: 200 µM; treatment time: 4 h; cell line lysate: HEK293T
row,Target,log2 mean competition ratio
1,LARS1 C1093,0.365
2,KPNA6 C139 (UniProt O60684),-0.264
3,LAGE3 C113 (UniProt Q14657),0.17
4,KMT2A C2074 (UniProt Q03164),-0.247
5,KLHDC10 C73 (UniProt Q6PID8),-0.0251
6,L3MBTL2 C554 (UniProt Q969R5),-0.183
7,KNL1 C1847 (UniProt Q8NG31),0.0221
8,KIF7 C647,0.334
9,LOC100421372 C210,0.107
10,LRIG1 C1066,-0.569
11,KLHDC4 C430 (UniProt Q8TBB5),0.0545
12,LARP1 C238 (UniProt Q6PKG0),0.484
13,LCP1 C336 (UniProt P13796),-0.0481
14,LIG4 C510 (UniProt P49917),0.185
